The source of these data is paper PMC3897919, “ERAD and protein import defects in a sec61 mutant lacking ER-lumenal loop 7” (BMC Cell Biology, 2013).

Results are given in words; binding and its absence hold for the method and conditions named. Binding seen in cells or lysates may run through a third protein. Some binding calls cover weakened binding; strength is not graded here.

Assay [1] concerns the target T1, Sec71p (S. cerevisiae (endogenous in yeast microsomes)) (UniProt P33754).
T1 sequence (chain, glycosylated (the only glycosylated Sec complex subunit)): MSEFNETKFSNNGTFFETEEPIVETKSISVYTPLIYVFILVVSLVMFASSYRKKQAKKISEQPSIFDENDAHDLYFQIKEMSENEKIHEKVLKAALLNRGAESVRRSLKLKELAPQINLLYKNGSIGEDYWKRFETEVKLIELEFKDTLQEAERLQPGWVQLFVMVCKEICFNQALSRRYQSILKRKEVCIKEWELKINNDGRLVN
The assay is described as follows: pull-down; microsomes solubilized in digitonin, ribosome-bound Sec61 complex removed by ultracentrifugation; heptameric Sec complex precipitated through the Sec71p glycoprotein with ConA-Sepharose (1 h, 4°C); Sec61p and Sec62p in supernatant and precipitates detected by immunoblotting.

In assay [2] the target is T2, Sec61p (wildtype) (S. cerevisiae) (UniProt P32915).
T2 sequence: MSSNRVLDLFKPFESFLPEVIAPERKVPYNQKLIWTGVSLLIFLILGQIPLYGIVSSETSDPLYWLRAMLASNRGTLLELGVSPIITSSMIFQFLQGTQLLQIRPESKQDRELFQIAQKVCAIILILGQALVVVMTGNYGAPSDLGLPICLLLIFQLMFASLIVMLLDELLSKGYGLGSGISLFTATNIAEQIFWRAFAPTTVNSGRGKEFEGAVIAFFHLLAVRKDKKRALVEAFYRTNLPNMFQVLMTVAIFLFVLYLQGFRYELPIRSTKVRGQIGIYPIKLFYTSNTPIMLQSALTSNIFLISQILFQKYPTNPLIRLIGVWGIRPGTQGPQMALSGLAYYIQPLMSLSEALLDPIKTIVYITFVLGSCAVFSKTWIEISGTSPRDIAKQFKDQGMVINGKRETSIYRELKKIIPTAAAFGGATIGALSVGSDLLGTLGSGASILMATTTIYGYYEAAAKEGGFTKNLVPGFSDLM
Briefly: co-sedimentation; microsomes solubilized in 1% Triton X-100, 500 mM potassium acetate, HEPES-KOH pH 7.5; 0-15% sucrose gradient, 200,000 g, 4°C, 16 h; 13 fractions from the top, immunoblotting for Sec61p, Sss1p, Sbh1p.

The target in assay [3] is T2, Sec61p (wildtype) (S. cerevisiae). The assay is described as follows: cross-linking; data not shown: DSS cross-linking of wildtype microsomes, immunoblotting of the crosslinked material with antibodies against Sbh1p. (In general: Immunoblotting shows a protein as a band on a membrane.)
Assay [4] shares this target. The assay is described as follows: cross-linking; intact microsomes in B88, pH 7.9, treated with DSS for 20 min at 20°C, quenched with ammonium acetate; SDS-PAGE and immunoblotting with anti-Sec61p or anti-Sss1p antibodies.

B1: Sec62p (protein, UniProt P21825 1-274)
chain: MSAVGPGSNAGASVNGGSATAIATLLRNHKELKQRQGLFQAKQTDFFRYKRFVRALHSEEYANKSARQPEIYPTIPSNKIEDQLKSREIFIQLIKAQMVIPVKKLHSQECKEHGLKPSKDFPHLIVSNKAQLEADEYFVWNYNPRTYMDYLIVIGVVSIILALVCYPLWPRSMRRGSYYVSLGAFGILAGFFAVAILRLILYVLSLIVYKDVGGFWIFPNLFEDCGVLESFKPLYGFGEKDTYSYKKKLKRMKKKQAKRESNKKKAINEKAEQN
As for B1, in assay [1], the binding result is “binds”.

B2: Sec61∆L7p (protein, UniProt P32915)
chain: MSSNRVLDLFKPFESFLPEVIAPERKVPYNQKLIWTGVSLLIFLILGQIPLYGIVSSETSDPLYWLRAMLASNRGTLLELGVSPIITSSMIFQFLQGTQLLQIRPESKQDRELFQIAQKVCAIILILGQALVVVMTGNYGAPSDLGLPICLLLIFQLMFASLIVMLLDELLSKGYGLGSGISLFTATNIAEQIFWRAFAPTTVNSGRGKEFEGAVIAFFHLLAVRKDKKRALVEAFYRTNLPNMFQVLMTVAIFLFVLYLQGFRYELPIRSTKVRGQIGIYPIKLFYTSNTPIMLQSALTSNIFRESCAVFSKTWIEISGTSPRDIAKQFKDQGMVINGKRETSIYRELKKIIPTAAAFGGATIGALSVGSDLLGTLGSGASILMATTTIYGYYEAAAKEGGFTKNLVPGFSDLM
On to B2, for which the binding result in assay [1] is “binds”.

B3: Sbh1p (protein, UniProt P52870 1-82)
chain: MSSPTPPGGQRTLQKRKQGSSQKVAASAPKKNTNSNNSILKIYSDEATGLRVDPLVVLFLAVGFIFSVVALHVISKVAGKLF
For the molecule B3, the binding entry is “binds” in assay [2] and “binds weakly” in assay [3].

B4: Sss1p (natural protein, UniProt P35179 1-80, looked up)
chain: MARASEKGEEKKQSNNQVEKLVEAPVEFVREGTQFLAKCKKPDLKEYTKIVKAVGIGFIAVGIIGYAIKLIHIPIRYVIV
notes: Sss1p, small subunit of the trimeric Sec61 complex, yeast; source: endogenous, yeast microsomes
For the molecule B4, the binding result in assay [4] and in assay [2] was “binds” each time.
